The target in this test is myc tagged NIK (pcS3MTNIK) (human) (UniProt Q99558). The test is described as follows: co-immunoprecipitation with anti GST, Western blot with anti myc. Background: A western blot detects proteins with antibodies after separation by electrophoresis.

The chains behind the UniProt entries cited, without tags or fusion partners.
UniProt Q99558: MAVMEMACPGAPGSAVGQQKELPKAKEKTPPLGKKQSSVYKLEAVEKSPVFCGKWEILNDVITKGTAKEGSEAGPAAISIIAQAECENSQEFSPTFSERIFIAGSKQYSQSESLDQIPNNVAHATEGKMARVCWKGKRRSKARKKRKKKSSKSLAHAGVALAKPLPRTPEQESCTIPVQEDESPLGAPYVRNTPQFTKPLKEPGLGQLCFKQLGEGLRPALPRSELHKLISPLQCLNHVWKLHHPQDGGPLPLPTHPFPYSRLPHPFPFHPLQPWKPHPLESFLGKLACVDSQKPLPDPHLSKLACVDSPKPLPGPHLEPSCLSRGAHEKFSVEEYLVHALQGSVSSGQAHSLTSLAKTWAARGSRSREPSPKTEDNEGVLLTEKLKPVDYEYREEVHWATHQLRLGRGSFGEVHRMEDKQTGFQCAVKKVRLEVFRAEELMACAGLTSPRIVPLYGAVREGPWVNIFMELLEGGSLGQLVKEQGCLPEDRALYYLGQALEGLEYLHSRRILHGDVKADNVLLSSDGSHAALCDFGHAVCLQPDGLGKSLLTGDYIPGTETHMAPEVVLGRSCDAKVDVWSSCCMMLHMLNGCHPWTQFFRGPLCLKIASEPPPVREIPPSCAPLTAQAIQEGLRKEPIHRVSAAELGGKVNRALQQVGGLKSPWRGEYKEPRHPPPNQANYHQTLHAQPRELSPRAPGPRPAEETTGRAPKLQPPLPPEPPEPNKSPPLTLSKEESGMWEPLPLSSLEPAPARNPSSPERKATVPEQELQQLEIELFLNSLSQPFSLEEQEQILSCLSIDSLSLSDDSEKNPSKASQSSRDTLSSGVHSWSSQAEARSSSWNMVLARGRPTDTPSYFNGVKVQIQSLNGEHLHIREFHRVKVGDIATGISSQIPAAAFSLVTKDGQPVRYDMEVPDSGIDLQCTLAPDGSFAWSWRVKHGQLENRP

Data on 1 molecule can be found in patent US20050272633A1.

These are yes or no findings as the source states them, for the method shown. Binding seen in cells or lysates may run through a third protein. Some binding calls cover weakened binding; strength is not graded here. Where a sequence is shown, tags or fusion partners need not be part of it.

Take WLERTMPRIPTLKNLEDLVTEYHGNFSAWSGVSKGLAESLQPDY (peptide, not shown: a dimerising Fc or GST) [44 MPD fused to GST]: the binding result is recorded as “binds”.
